Test results taken from PubChem BioAssay AID651768 (National Center for Advancing Translational Sciences (NCATS), 2012).
In all, about 360,000 compounds went through this assay and about 1,700 (0.47%) were called active. This list was built around the results that the source calls inconclusive (neither active nor inactive); the mix of calls is not that of the screen. The call rests on the fitted dose curve; in most records, active means well fitted inhibition curve with a large enough effect; inconclusive means small, poorly fitted or top-dose-only effect; inactive means no such curve, though single readings can be large or run the other way. Potencies beside an inconclusive call are fits to weak or partial responses and may not hold up.

Sequences of proteins named here, by UniProt entry; tags and fusion partners are left off.
UniProt Q14191, whole entry, looked up: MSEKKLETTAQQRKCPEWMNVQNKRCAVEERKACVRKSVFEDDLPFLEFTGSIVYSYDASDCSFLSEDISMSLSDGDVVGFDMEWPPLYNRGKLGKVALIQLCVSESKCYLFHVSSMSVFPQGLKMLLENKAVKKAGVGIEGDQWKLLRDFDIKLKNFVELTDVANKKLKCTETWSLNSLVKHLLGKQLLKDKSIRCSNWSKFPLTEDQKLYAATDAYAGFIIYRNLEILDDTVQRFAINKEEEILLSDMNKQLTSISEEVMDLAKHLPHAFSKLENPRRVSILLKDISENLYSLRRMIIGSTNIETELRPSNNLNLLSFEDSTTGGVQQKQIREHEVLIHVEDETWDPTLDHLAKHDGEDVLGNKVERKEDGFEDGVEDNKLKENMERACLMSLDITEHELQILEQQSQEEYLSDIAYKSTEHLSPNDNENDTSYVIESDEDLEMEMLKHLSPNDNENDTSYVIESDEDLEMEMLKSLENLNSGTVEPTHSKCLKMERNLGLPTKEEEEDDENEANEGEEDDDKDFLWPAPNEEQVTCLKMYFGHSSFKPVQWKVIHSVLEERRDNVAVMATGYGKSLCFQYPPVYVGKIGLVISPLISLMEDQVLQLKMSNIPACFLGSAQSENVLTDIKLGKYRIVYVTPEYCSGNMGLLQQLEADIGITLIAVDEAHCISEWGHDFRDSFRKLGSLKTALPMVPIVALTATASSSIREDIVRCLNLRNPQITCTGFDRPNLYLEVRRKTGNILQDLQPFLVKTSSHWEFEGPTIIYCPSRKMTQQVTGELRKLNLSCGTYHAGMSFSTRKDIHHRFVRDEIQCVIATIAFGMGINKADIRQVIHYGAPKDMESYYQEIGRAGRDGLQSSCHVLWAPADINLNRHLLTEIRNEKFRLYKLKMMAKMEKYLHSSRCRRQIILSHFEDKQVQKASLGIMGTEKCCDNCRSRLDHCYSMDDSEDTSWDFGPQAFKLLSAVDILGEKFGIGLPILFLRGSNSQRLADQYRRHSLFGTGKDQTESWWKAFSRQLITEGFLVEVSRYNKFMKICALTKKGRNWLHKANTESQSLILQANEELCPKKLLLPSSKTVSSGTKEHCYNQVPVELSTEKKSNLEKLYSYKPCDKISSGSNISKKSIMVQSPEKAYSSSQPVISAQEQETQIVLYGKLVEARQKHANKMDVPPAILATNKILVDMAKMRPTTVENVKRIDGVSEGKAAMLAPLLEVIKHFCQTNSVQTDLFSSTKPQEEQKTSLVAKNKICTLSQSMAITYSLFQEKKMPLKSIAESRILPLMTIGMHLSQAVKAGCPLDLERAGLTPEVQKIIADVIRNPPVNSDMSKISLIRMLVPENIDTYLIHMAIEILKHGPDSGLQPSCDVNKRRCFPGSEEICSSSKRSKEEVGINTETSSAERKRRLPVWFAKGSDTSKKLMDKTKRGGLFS

These compounds were tested against Bifunctional 3'-5' exonuclease/ATP-dependent helicase WRN (Homo sapiens) (UniProt Q14191) (assay: qHTS for Inhibitors of WRN Helicase). Settings: WRN helicase unwinding, fluorescent forked duplex, kinetic; series mostly up to 114 µM.
Summary of the method: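 WRN at 20 nM final was preincubated with compound for 15 min at room temperature; reaction started with 100 nM forked duplex oligonucleotide carrying fluorophore and quencher plus 2 mM ATP (final). Unwinding followed kinetically by red fluorescence (ex 525/em 598 nm).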
Further: nearly all actives have a fitted effect of over 55% in size.
Potency means the concentration at half of the fitted maximal effect.

SMILES | Potency
CSc1ncccc1C(=O)OCC(=O)Nc1ccc(C)c(S(=O)(=O)N2CCOCC2)c1 | inconclusive: 20 µM [inhibitor, full curve, poor fit]
CC1(NC(=O)CCc2nc3ccccc3c(=O)[nH]2)CCS(=O)(=O)C1 (stereo unspecified) | inactive
Clc1ccc2c(N/N=C/c3cccnc3)ccnc2c1 | inactive
CCOC(=O)CNS(=O)(=O)c1cc(-c2nnc(Nc3ccc4c(c3)OCO4)c3ccccc23)ccc1C | inconclusive: 12.6 µM [inhibitor, single point]
Cc1cc(C)c(C(=O)NC2CCCc3c2cnn3-c2ccc(C)c(C)c2)c(=O)[nH]1 (stereo unspecified) | inconclusive: 15.8 µM [inhibitor, full curve, poor fit]
CC12CCC(=O)N1C(C(=O)Nc1nnc(SCc3ccccc3)s1)CS2 (stereo unspecified) | inconclusive: 89.1 µM [inhibitor, single point]
CSCCC(=O)Nc1cc(S(=O)(=O)N2CCOCC2)ccc1N1CCN(C)CC1 | inactive
CC(=O)C(Cc1ccccc1)(Cc1ccccc1)C(C)=O | inactive
COc1ccc(OC)c(S(=O)(=O)NCCCN2CCCC2=O)c1 | inactive
C/C=C(/CCC1NCCc2c1[nH]c1ccccc21)[Si](C)(C)C (stereo unspecified) | inconclusive: 20 µM [inhibitor, partial curve]
Oc1ccc(Br)cc1CNc1cccc2cccnc12 | inactive
COc1cc(C(=O)O/N=C(\N)Cc2ccc([N+](=O)[O-])cc2)cc(OC)c1OC | inconclusive: 3.55 µM [inhibitor, full curve, poor fit]
c1ccc(Cn2c(SCc3nc4ccccc4s3)nnc2-c2ccco2)cc1 | active: 35.5 µM
Cc1ccccc1-c1nnn(CC(=O)Nc2ccc3c(c2)OCCO3)n1 | inconclusive: 89.1 µM [inhibitor, single point]
O=C1C=C(O)CC(c2ccc(Cl)cc2)C1 (stereo unspecified) | inactive
O=C(Cn1sc2ccccc2c1=O)Nc1ccc(Br)cc1 | inactive
Cc1cccc(NC(=O)c2nc[nH]c2C(=O)N[C@@H](C)C(=O)OCc2ccccc2)c1 | inactive
COc1cc(/C=N/Nc2ccccn2)cc(OC)c1O | inconclusive: 35.5 µM [inhibitor, single point]
CC(C)CC(=O)N1CCN(Cc2ccccc2[N+](=O)[O-])CC1 | inconclusive: 56.2 µM [inhibitor, partial curve]
Cc1ccccc1OCC(O)Cn1nnc2ccccc21 (stereo unspecified) | inactive
COc1cc(C(=O)NC(=S)Nc2ccc3c(c2)OCO3)cc(OC)c1OC | inconclusive: 3.55 µM [inhibitor, full curve, poor fit]
Cc1cccc(Nc2nnc(SCC(O)=C(C#N)c3nc4ccccc4[nH]3)s2)c1 | inconclusive: 89.1 µM [inhibitor, single point]
Cc1cccc(C)c1NC(=S)N(Cc1cccs1)C1CCCC1 | inconclusive: 39.8 µM [inhibitor, single point]

SMILES | Potency
Cc1cc(Br)cc2c(C(=O)NCC3CCCO3)cc(-c3ccccc3)nc12 (stereo unspecified) | inconclusive: 89.1 µM [inhibitor, single point]
O=C(Nc1sccc1C(=O)NCc1ccco1)c1cccnc1 | inconclusive: 44.7 µM [inhibitor, partial curve]
Cc1ccc(-c2cc(-c3ccco3)c(C#N)c(=O)[nH]2)cc1 | active: 31.6 µM
Cc1c(NC(=O)C(C)OC(=O)c2c3c(nc4ccccc24)CCC3)c(=O)n(-c2ccccc2)n1C (stereo unspecified) | inconclusive: 50.1 µM [inhibitor, partial curve]
CC(C)CN(C(=O)COC(=O)c1ccc([N+](=O)[O-])s1)c1c(N)n(Cc2ccccc2)c(=O)[nH]c1=O | inactive
CCN(CC(=O)NCCCN1CCOCC1)S(=O)(=O)c1ccc(F)cc1 | inactive
CCn1cc(C(=O)NN)c(=O)c2cc(F)c(N3CCOCC3)cc21 | active: 89.1 µM
Nc1ccc(N=Nc2ccccc2)c(N)n1 | inactive
COCCNC(=O)/C(C#N)=C1\N=C(N)c2ccccc21 | inconclusive: 14.1 µM [inhibitor, partial curve]
O=C(/C=C/c1ccccc1)NCc1ccco1 | inactive
C/C(N)=C(/C#N)C(=O)CSc1nnc(NC(C)C)s1 | inconclusive: 10 µM [inhibitor, partial curve]
O=C(NCc1ccccc1)c1ccc2c(=O)[nH]c3c(C(=O)NCC4CCCO4)sc(=S)n3c2c1 (stereo unspecified) | inconclusive: 35.5 µM [inhibitor, partial curve]
CC(C)(C)c1nnc2sc(SC/C(O)=C(\C#N)c3nc4ccccc4[nH]3)nn2c1=O | inconclusive: 21.2 µM [inhibitor, partial curve]
O=C(N/N=C/c1ccc(O)c([N+](=O)[O-])c1)C1CC1(c1ccccc1)c1ccccc1 (stereo unspecified) | inconclusive: 50.1 µM [inhibitor, single point]
Cn1c(=O)c2c(nc(NCCOc3ccc(C(C)(C)C)cc3)n2C)n(C)c1=O | inactive
COc1cc(/C=C2\SC(=S)N(NC(=O)c3ccncc3)C2=O)ccc1O | active: 50.1 µM
Nc1nc2ncc(C(=O)c3cc(Cl)cc(Cl)c3O)cc2s1 | inconclusive: 56.2 µM [inhibitor, partial curve]
Oc1ccc(Nc2nc(NCC3CCCO3)c3ccccc3n2)cc1 (stereo unspecified) | active: 35.5 µM
C=C(C)C(=O)Nc1cccc(C2=NOC3(C2)C[C@H](C(N)=O)N(C(=O)COc2ccc(Cl)cc2)C3)c1 (stereo partly specified) | inconclusive: 4.23 µM [inhibitor, partial curve]
CC(=O)C1=C(O)C(=O)N(c2ccc(O)cc2)C1c1ccccc1Cl (stereo unspecified) | inconclusive: 89.1 µM [inhibitor, single point]
CCOC(=O)c1c(NC(=O)CSc2nccc(=O)[nH]2)sc(C)c1C | inconclusive: 44.7 µM [inhibitor, partial curve]
O=c1cc(O)c2sc(Nc3cccc(C(F)(F)F)c3)nc2[nH]1 | inconclusive: 35.5 µM [inhibitor, full curve, poor fit]
COc1ccccc1C1NC=C([N+](=O)[O-])C=C1[N+](=O)[O-] (stereo unspecified) | inconclusive: 39.8 µM [inhibitor, single point]

Single entries from the entries so far.
Entry for `Cc1ccccc1OCC(O)Cn1nnc2ccccc21` (stereo unspecified) under Potency: inactive
Entry for `O=C(Nc1sccc1C(=O)NCc1ccco1)c1cccnc1` under Potency: inconclusive: 44.7 µM [inhibitor, partial curve]
Entry for `O=C1C=C(O)CC(c2ccc(Cl)cc2)C1` (stereo unspecified) under Potency: inactive
